{"source": "patent US10426774B2", "about": "“Methods of treating cancer having an active Wnt/β-catenin pathway” (DANA-FARBER CANCER INSTITUTE, INC., priority 2012, dated 2019)", "key": {"[1]": {"test_system": "β-catenin-YAP1 complex", "experiment": "β-catenin-YAP1 coimmunoprecipitation in colon cancer cells", "format": "cell-based, human"}, "[2]": {"test_system": "AXIN1 mutant zebrafish", "experiment": "Zebrafish model of intestinal hyperplasia (AXIN1 mutant, Masterblind)", "format": "in vivo"}, "[3]": {"test_system": "β-catenin active cell lines"}, "[4]": {"test_system": "WT zebrafish", "experiment": "Intestinal structure and cell number in WT zebrafish", "format": "in vivo", "conditions": "2 μM for 48 hr from 6 dpf"}, "[5]": {"test_system": "zebrafish embryos", "experiment": "Zebrafish embryo gut formation (IFABP expression / gut reporter)", "format": "in vivo", "conditions": "embryos exposed at 2 dpf, IFABP expression after 24 hr", "experimental": "FIG. 5: YES1 is essential for tumorgenicity of β-catenin-active cells. (A) V5 immune complexes were isolated from HuTu80 or SW480 cells stably expressing WT or Y357F V5-epitope-tagged YAP1 or control V5-LacZ Immune complexes were analyzed by immunoblotting with a phosphotyrosine antibody. (B) HuTu80 or SW480 cells stably expressing V5-epitope-tagged WT YAP1 were treated for 6 hr with 0.5 or 2 μM of dasatinib. V5 immune complexes were analyzed by immunoblotting with a phosphotyrosine antibody. (C) Transgenic IFABP:RFP zebrafish were injected with 50 μM of YAP1- or YES1-specific morpholinos. Red fluorescence was assessed 4 dpf, or IFABP expression was assessed 3 dpf by using whole-mount in situ hybridization with an IFABP-specific probe. (D) Embryos were exposed to 2 μM of dasatinib at 2 dpf, and IFABP expression was assessed after 24 hr by using whole-mount in situ hybridization.\nZebrafish were maintained according to institutional animal care and use committee (IACUC-BIDMC) protocols. Validated morpholinos (MO) (Gene-Tools, PhiloMath, Oreg.) designed against the ATG site of YES1 (5′-CC […]-3′, SEQ ID NO: 1) (Jopling and Hertog, 2007) or YAP1 (5′-[…]-3′, SEQ ID NO: 2) (Skouloudaki et al., 2009) were injected into WT or gut reporter (Tg(fabp2:RFP)as200) zebrafish at the one-cell stage. […]"}, "[6]": {"test_system": "BCL2L1 and BIRC5 promoters", "experiment": "ChIP of β-catenin or YAP1 immune complexes at BCL2L1 and BIRC5 promoters", "format": "cell-based, human", "conditions": "HCT116; 2 μM"}, "[7]": {"test_system": "APC null organoids", "experiment": "Three-dimensional primary colon organoid culture, APC null", "format": "cell-based, mouse", "conditions": "1-100 nM; p<0.005", "experimental": "[…] (B) Quantification of results in (A). Error bars represent SD from four replicates. Blank denotes wells where no organoids were added. (C) WT or AXIN1 mutant (Masterblind) zebrafish were treated with 2 μM of dasatinib from 6-8 dpf. Arrow indicates developing gut. (D) H&E staining of zebrafish in (C) width of epithelium is noted by bars. (E) The number of epithelial cells/section was measured in WT or AXIN1 mutant zebrafish treated with 2 μM of dasatinib or DMSO. Error bars represent the SD from 20 different sections from five treated fish. p value was calculated by using Student's t test.\nColons from Apc flox/flox; villin-CreER mice were dissected lengthwise and washed in cold PBS. 0.5-1 cm segment per dish was minced extensively on ice and embedded in a 3D collagen gel by using a double-dish culture system (Ootani et al., 2009). Tamoxifen (Sigma, 2 μM in ethanol) or vehicle (ethanol) was applied on the day of initial plating for 7 days to generate APC null or WT organoids."}, "[8]": {"test_system": "BCL2L1 and BIRC5 expression", "experiment": "mRNA levels of BCL2L1 and BIRC5 (quantitative RT-PCR)", "format": "cell-based, human"}, "[9]": {"test_system": "YAP1", "experiment": "YAP1 tyrosine phosphorylation (V5 immune complexes, phosphotyrosine immunoblot)", "format": "cell-based, human", "conditions": "HuTu80 or SW480 cells expressing WT YAP1; 0.5 or 2 μM, 6 hr"}}, "note": "At least one structure is not confirmed: it was looked up by name or label, or the drawing left a doubt."}
{"compound": "Cc1nc(Nc2ncc(C(=O)Nc3c(C)cccc3Cl)s2)cc(N2CCN(CCO)CC2)n1", "note": "[dasatinib]", "values": [{"measurement": "dasatinib-induced increase in β-catenin-YAP1 interaction with dasatinib-resistant YES1 or SRC", "setting": "[1]; HuTu80 expressing dasatinib-resistant YES1 or SRC mutants, 2 μM, 6 hr", "result": "reversed"}, {"measurement": "interaction between β-catenin and YAP1", "setting": "[1]; SW480, 6 hr, increasing concentrations", "result": "increased"}, {"measurement": "formation of the β-catenin-YAP1 complex", "setting": "[1]; colon cancer cells", "result": "inhibited"}, {"measurement": "number of epithelial cells", "setting": "[2]; AXIN1 mutant, 2 μM, 6-8 dpf, p<0.0001", "result": "significantly (p<0.0001) decreased"}, {"measurement": "intestinal hyperplasia", "setting": "[2]; AXIN1 mutants, 2 μM for 48 hr from 6 dpf, morphology, H&E", "result": "suppressed"}, {"measurement": "proliferation arrest in cells expressing dasatinib resistant YES1 or SRC mutant", "setting": "[3]; HCT116 or HuTu80 stably expressing YES1 (T348I) or SRC (T341I)", "result": "rescued"}, {"measurement": "sensitivity of β-catenin active cell lines to exposure to dasatinib", "setting": "[3]; colon cancer cell lines with β-catenin activity", "result": "highly sensitive"}, {"measurement": "proliferation arrest", "setting": "[3]; exposure time", "result": "induced a proliferation arrest only after prolonged exposure (7 days)"}, {"measurement": "changes in the intestinal structure or cell number", "setting": "[4]", "result": "failed to observe changes"}, {"measurement": "gut formation", "setting": "[5]", "result": "inhibited gut formation"}, {"measurement": "binding of β-catenin and YAP1 to the BCL2L1 and BIRC5 promoters", "setting": "[6]", "result": "inhibited"}, {"measurement": "sensitivity of Apc null organoids versus WT organoids", "setting": "[7]", "result": "more sensitive"}, {"measurement": "BCL2L1 and BIRC5 expression", "setting": "[8]; HCT116 or HuTu80, 2 μM, 1 hr", "result": "down-regulation"}, {"measurement": "down-regulation of BCL2L1 and BIRC5 expression with dasatinib-resistant form of YES1", "setting": "[8]; HCT116 or HuTu80 expressing dasatinib-resistant YES1", "result": "reversed"}, {"measurement": "tyrosine phosphorylation of YAP1", "setting": "[9]", "result": "inhibited"}]}
